A short description of the data set: general procedure: Boc solid-phase peptide synthesis; 1.4% crosslinked 100-200 mesh phenolic resin from acetoxystyrene/styrene/divinylbenzene copolymer (phenyl ester linkage); DCCI (with pyridine, N-methyl morpholine or HOBt). The conditions noted are these: whole synthesis; for isolated yield: overall.

The results in this text go back to patent USRE30731E (priority 1977, dated 1981).

Where the note is “scale 0.1 mmol”, “5-Amino-6-(4'-hdyroxyphenyl)-hexanoyl-glycyl-L-phenylalanyl-L-methionine a mide” gave an isolated mass of 41.7 mg. In turn, “5-amino-6-(4-hydroxyphenyl)-hexanoyl-glycyl-phenylalanyl-methionine amide” displayed an isolated yield of 40%.

Substance BOC--Tyr--Gly--Gly--Phe--Met--OH returned an isolated yield (based on methionine originally coupled to the resin) of 58%. H-Tyr-Gly-Gly-Phe-Met-OH returned an isolated yield of 48%.
